Measurements taken from PubChem BioAssay (EPA / NIEHS).
Where “and” joins values, the source holds several entries; their conditions need not be identical. Identical values can stand only once. Inconclusive results, whose numbers are uncertain, are shown with a selection of clear calls. For some assays here: A potency beside an inconclusive call is a rough fit, not a confirmed value. Calls of active or inactive are those of the source. How the source made its calls: active means hit-call score of the fitted dose curve at least 0.9, where 1 is the maximum; inconclusive means response in the unintended direction; inactive means score below 0.9.

Amino acid sequences for entries named in this document (tags omitted).
UniProt P04637, whole entry, looked up: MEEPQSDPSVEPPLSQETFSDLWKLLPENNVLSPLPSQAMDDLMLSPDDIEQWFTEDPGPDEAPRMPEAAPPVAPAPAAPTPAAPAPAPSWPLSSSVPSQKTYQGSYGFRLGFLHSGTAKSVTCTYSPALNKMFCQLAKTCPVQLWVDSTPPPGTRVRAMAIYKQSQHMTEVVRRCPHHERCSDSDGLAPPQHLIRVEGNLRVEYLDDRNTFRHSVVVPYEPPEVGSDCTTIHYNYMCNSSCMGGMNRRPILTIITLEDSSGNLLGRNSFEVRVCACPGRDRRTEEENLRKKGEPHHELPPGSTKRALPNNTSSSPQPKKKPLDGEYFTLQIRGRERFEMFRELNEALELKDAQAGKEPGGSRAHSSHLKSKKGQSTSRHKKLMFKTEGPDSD

How the values were obtained:
[1] = target: Cellular tumor antigen p53 (Homo sapiens) (UniProt P04637); experiment: TOX21_p53_BLA_p3_ratio: Tox21 HCT-116 p53 Agonism Beta-lactamase Assay, Ratio, Phase 3 (AID 2283596)
How it was run: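 HCT116 p53-bla cells (4000/well) given compound in DMSO (217-fold dilution) after 5 h, incubated 16 h at 37C. CCF4-AM substrate 2 h at room temperature; 460/530 nm emission ratio, gain fitted against DMSO.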

[2] = TOX21_p53_BLA_p4_viability: Viability Assessment in the Tox21 HCT-116 p53 Agonism Beta-lactamase Assay, Phase 4 (AID 2283597);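 further: hits lower the luminescence signal meaning cytotoxicity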
How it was run: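 Cells plated, 5 h pre-incubation; DMSO compounds pinned (217-fold dilution); 16 h, 37C/5% CO2; CCF4-AM 2 h RT; CellTiter-Glo 30 min RT; luminescence read.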

[3] = TOX21_p53_BLA_p3_viability: Viability Assessment in the Tox21 HCT-116 p53 Agonism Beta-lactamase Assay, Phase 3 (AID 2283593);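 further: cells exposed to compound for 16 h before reading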
How it was run: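 HCT116 cells, 4000/well, dosed 5 h after plating by pin transfer (217-fold dilution from DMSO stock) and incubated 16 h at 37C, 5% CO2. Viability read as ATP luminescence with CellTiter-Glo after 30 min at room temperature.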

[4] = TOX21_p53_BLA_p5_viability: Viability Assessment in the Tox21 HCT-116 p53 Agonism Beta-lactamase Assay, Phase 5 (AID 2283600)
How it was run: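 4000 cells/well; 5 h pre-incubation; DMSO compounds pin-transferred, 217-fold dilution; 16 h, 37C/5% CO2; CCF4-AM 2 h RT; CellTiter-Glo 30 min RT; luminescence.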

[5] = target: Cellular tumor antigen p53 (Homo sapiens) (UniProt P04637); experiment: TOX21_p53_BLA_p5_ratio: Tox21 HCT-116 p53 Agonism Beta-lactamase Assay, Ratio, Phase 5 (AID 2283599)
How it was run: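 HCT-116 p53-bla cells (4000/well) plated 5 h, dosed with compound (217-fold DMSO dilution) for 16 h at 37 C; CCF4-AM substrate 2 h at room temperature. Activity is the 460/530 nm emission ratio (405 nm excitation), fitted in gain-of-signal direction versus DMSO.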

[6] = target: Cellular tumor antigen p53 (Homo sapiens) (UniProt P04637); experiment: TOX21_p53_BLA_p4_ratio: Tox21 HCT-116 p53 Agonism Beta-lactamase Assay, Ratio, Phase 4 (AID 2283601)
How it was run: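 HCT-116 p53 beta-lactamase reporter cells (4000/well) preincubated 5 h, then compound (217-fold dilution of DMSO stock) for 16 h at 37C. CCF4-AM substrate added 2 h at room temperature; 460/530 nm emission ratio fitted upward versus DMSO.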

[7] = TOX21_PR_LUC_Followup_Agonist_viability: Viability Assessment in the Tox21 HEK293 Progesterone Receptor (PR) Agonism Luciferase Follow-Up Assay (AID 2283941);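 further: loss of signal means cytotoxicity so actives lower viability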
How it was run: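 HEK293-PR-A-luc cells, kept in 10% charcoal-stripped FBS medium, were treated with compounds for 16 h at 37C. Viability read as cellular ATP by luciferase-coupled luminescence; loss of signal indicates cytotoxicity.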

SMILES: C[C@@H](O)[C@H]1C(=O)N2C(C(=O)[O-])=C(SC3Cn4cnc[n+]4C3)[C@H](C)[C@H]12 (some centres not stated)
- outcome [1]: inactive
- AC50 [2]: inconclusive: 0.0823 µM

SMILES: CCCCCCCCCCCC[N+](C)(C)CC(=O)O
- AC50 [3]: inconclusive: 0.0315 µM
- AC50 [4]: inconclusive: 46.1 µM

SMILES: Clc1ccc2c(c1)CCc1cccnc1C2=C1CCNCC1
- AC50 [1]: inconclusive: 23 µM

SMILES: Cc1cc(C)c(N=Nc2c(O)c(S(=O)(=O)O)cc3cc(S(=O)(=O)O)ccc23)cc1C
- outcome [3]: inactive
- outcome [5]: inactive
- AC50 [6]: inconclusive: 2.83 µM

SMILES: CC[C@H](CC[C@@H](C)[C@H]1CC[C@H]2[C@@H]3CC=C4C[C@@H](O)CC[C@]4(C)[C@H]3CC[C@]12C)C(C)C
- AC50 [3]: inconclusive: 23 µM
- outcome [4]: inactive
- outcome [6]: inactive

SMILES: Cc1ncc(C[n+]2csc(CCOP(=O)(O)OP(=O)(O)O)c2C)c(N)n1
- outcome [3]: inactive
- AC50 [4]: inconclusive: 23 µM

SMILES: O=C1c2c(O)cccc2C([C@@H]2O[C@H](CO)[C@@H](O)[C@H](O)[C@H]2O)c2cc(CO)cc(O)c21 (some centres not stated)
- AC50 [3]: inconclusive: 0.0202 µM
- outcome [4]: inactive

SMILES: COc1ccc(C(=O)Nc2ccccc2CCC2CCCCN2C)cc1 (configuration not stated)
- AC50 [3]: inconclusive: 1.28e-05 µM
- AC50 [5]: inconclusive: 23 µM
- AC50 [6]: inconclusive: 23 µM

SMILES: O=C(O)c1cccc(O)c1
- AC50 [3]: inconclusive: 46.4 µM
- AC50 [4]: inconclusive: 46.4 µM

SMILES: CC(=O)c1ccc2c(c1)N(CCCN1CCC(CCO)CC1)c1ccccc1S2
- outcome [1]: inactive

SMILES: COc1ccc(C(=O)c2ccc(OC)cc2O)c(O)c1
- AC50 [3]: inconclusive: 2.44 µM
- AC50 [4]: inconclusive: 0.0359 µM

SMILES: CCCCCCCCCCCCCC(=O)OCC(COP(=O)([O-])OCC[N+](C)(C)C)OC(=O)CCCCCCCCCCCCC (configuration not stated)
- AC50 [3]: active: 42.8 µM
- outcome [6]: inactive

SMILES: C[Si](C)(C)C
- AC50 [1]: inconclusive: 44.3 µM
- AC50 [2]: inconclusive: 44.3 µM

SMILES: C[C@@H](O)[C@H](N)C(=O)O
- AC50 [3]: inconclusive: 23 µM
- outcome [4]: inactive

SMILES: Cc1ccccc1C(=O)N1CC/C(=N\OS(=O)(=O)O)c2ccc(Cl)cc21
- AC50 [3]: inconclusive: 23 µM
- outcome [4]: inactive

SMILES: CCn1c2ccccc2c2cc([N+](=O)[O-])ccc21
- AC50 [3]: inconclusive: 46.1 µM
- AC50 [4]: inconclusive: 46.1 µM
- outcome [6]: inactive
- outcome [7]: inactive

SMILES: Cc1ccc(O)c(C(=O)c2ccccc2)c1
- outcome [1]: inactive
- outcome [2]: inactive
- AC50 [4]: inconclusive: 46.5 µM

SMILES: COc1ccc(C2C(=O)c3ccccc3C2=O)cc1
- AC50 [1]: inconclusive: 23 µM
- AC50 [2]: inconclusive: 0.715 µM
- AC50 [5]: inconclusive: 23 µM
- outcome [4]: inactive

SMILES: O
- AC50 [1]: inconclusive: 45.8 µM
- AC50 [2]: inconclusive: 86.2 µM
- AC50 [5]: inconclusive: 46.6 µM and inconclusive: 45.8 µM
- AC50 [4]: inconclusive: 46.6 µM and inconclusive: 45.8 µM
- AC50 [6]: inconclusive: 45.8 µM
- outcome [6]: inactive

SMILES: CCC(=O)c1ccc2c(c1)N(CCCN1CCN(CCO)CC1)c1ccccc1S2
- AC50 [1]: inconclusive: 23 µM
- AC50 [2]: active: 33.3 µM
- AC50 [5]: inconclusive: 23 µM

SMILES: COc1cccc(Br)c1
- outcome [1]: inactive
- AC50 [2]: inconclusive: 46.1 µM
- AC50 [4]: inconclusive: 46.1 µM

SMILES: CC/C=C\C/C=C\C/C=C\C/C=C\C/C=C\CCCC(=O)O
- outcome [1]: inactive
- outcome [2]: inactive
- AC50 [5]: inconclusive: 23 µM
- outcome [6]: inactive

SMILES: COc1cc2c(cc1OC)CC(=O)N(CCCN(C)C[C@H]1Cc3cc(OC)c(OC)cc31)CC2
- outcome [1]: inactive
- AC50 [2]: inconclusive: 23 µM
- AC50 [5]: inconclusive: 23 µM

SMILES: C=CCN1C[C@H](C(=O)N(CCCN(C)C)C(=O)NCC)C[C@@H]2c3cccc4[nH]cc(c34)C[C@H]21
- AC50 [1]: inconclusive: 23 µM
- outcome [2]: inactive
- outcome [4]: inactive

SMILES: CO[Si](OC)(OC)OC
- AC50 [1]: inconclusive: 45.2 µM
- AC50 [2]: inconclusive: 45.2 µM
- outcome [5]: inactive
- AC50 [4]: inconclusive: 45.2 µM
- AC50 [6]: inconclusive: 45.2 µM

SMILES: C=CC1=C(C(=O)O)N2C(=O)[C@@H](NC(=O)C(=NOCC(=O)O)c3csc(N)n3)[C@H]2SC1
- AC50 [1]: inconclusive: 10.3 µM
- AC50 [2]: inconclusive: 10.3 µM
- outcome [5]: inactive
- AC50 [4]: inconclusive: 10.3 µM

SMILES: CNC(=O)C[C@@H](N)C(=O)N[C@@H](C(=O)N[C@@H]1C(=O)N2[C@@H]1SC(C)(C)[C@@H]2C(=O)O)c1ccc(O)cc1
- AC50 [1]: inconclusive: 23 µM
- AC50 [2]: inconclusive: 15.2 µM
- AC50 [5]: inconclusive: 23 µM
- outcome [4]: inactive
